Experimental data as given in patent US20060062832A1, “Sanitizing wipes with microbicidal properties cross-reference to related applications” (priority 2004, published 2006).
At least one compound was matched to its structure with a doubt left. Marks after values point to notes of the source that are not given here.

Tests used:
Experiment in all cases: modified detergent and germicidal sanitizer test of the A.O.A.C.
Format in all cases: cell-based
[1] = test system: Salmonella typhimurium ATCC 7823; conditions: S.t. 7823; 60 seconds contact; duplicate counts
Protocol: (§1) The efficacy of the sanitizers of Examples I-III were further evaluated with 50 ppm of hypochlorite as a control against Salmonella typhimurium, Listeria monocytogenes, Aeromonas hydrophila, and Pseudomonas aeruginosa essentially by the modified detergent and germicidal sanitizer test of the A.O.A.C. The sanitizers were tested against both natural isolates and the antibiotic resistant strains of Listeria monocytogenes and Salmonella typhimurium. Each of the antibiotic resistant strains was used separately as well as in a composite strain prepared by mixing equal numbers of five different antibiotic resistant strains of Listeria monocytogenes or those of Salmonella typhimurium, respectively.

[2] = test system: Pseudomonas aeruginosa ATCC 10145; conditions: P.a. 10145, duplicate counts
Protocol: as §1

[3] = test system: Listeria monocytogenes ATCC 7644; conditions: L.m. 7644
Protocol: as §1, with “[…],” for “efficacy of the sanitizers of Examples I-III were further evaluated with 50 ppm of hypochlorite as a control against Salmonella typhimurium,”

[4] = test system: Aeromonas hydrophila ATCC 7965; conditions: A.h. 7965
Protocol: as §1, with “[…],” for “efficacy of the sanitizers of Examples I-III were further evaluated with 50 ppm of hypochlorite as a control against Salmonella typhimurium,”

[5] = 30 seconds contact, HOCL = 200 ppm
[6] = 60 seconds contact, duplicate counts

OCl [Hypochlorite]
Number of surviving bacteria/ml after 60 seconds [1]: 86, 94 cfu/ml | Number of surviving bacteria/ml after 30 seconds ([2]; 30 seconds contact): 1, 2 cfu/ml | Number of surviving bacteria/ml after 60 seconds ([2]; 60 seconds contact): 1, 0 cfu/ml | Number of surviving bacteria/ml after 30 seconds [3, 5]: 82*, 60* cfu/ml | Number of surviving bacteria/ml after 60 seconds [3, 6]: 17, 16 cfu/ml | Number of surviving bacteria/ml after 30 seconds [4, 5]: 1*, 0* cfu/ml | Number of surviving bacteria/ml after 60 seconds [4, 6]: 0, 0 cfu/ml
